Legend:
Histone deacetylase 1 = Histone deacetylase 1 (Homo sapiens, UniProt Q13547); settings: Sf9
Histone deacetylase 3 = Histone deacetylase 3 (Homo sapiens, UniProt O15379)

The chains behind the UniProt entries cited, without tags or fusion partners. Where a name states a change or a piece, a line headed by the entry shows the natural chain unless it says otherwise.
UniProt Q13547, whole entry: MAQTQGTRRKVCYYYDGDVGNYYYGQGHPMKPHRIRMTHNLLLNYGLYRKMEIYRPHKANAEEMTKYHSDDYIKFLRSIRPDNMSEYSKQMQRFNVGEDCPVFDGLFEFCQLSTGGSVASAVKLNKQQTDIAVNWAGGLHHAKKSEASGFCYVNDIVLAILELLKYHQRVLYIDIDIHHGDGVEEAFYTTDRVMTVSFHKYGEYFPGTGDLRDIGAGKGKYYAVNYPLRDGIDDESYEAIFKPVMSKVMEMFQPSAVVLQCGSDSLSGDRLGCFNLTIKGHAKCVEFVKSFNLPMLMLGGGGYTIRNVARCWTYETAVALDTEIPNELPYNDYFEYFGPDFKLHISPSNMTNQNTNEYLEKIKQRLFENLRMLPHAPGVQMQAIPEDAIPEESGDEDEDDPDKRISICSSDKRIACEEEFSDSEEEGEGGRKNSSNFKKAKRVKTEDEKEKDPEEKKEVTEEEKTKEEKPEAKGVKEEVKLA
UniProt O15379: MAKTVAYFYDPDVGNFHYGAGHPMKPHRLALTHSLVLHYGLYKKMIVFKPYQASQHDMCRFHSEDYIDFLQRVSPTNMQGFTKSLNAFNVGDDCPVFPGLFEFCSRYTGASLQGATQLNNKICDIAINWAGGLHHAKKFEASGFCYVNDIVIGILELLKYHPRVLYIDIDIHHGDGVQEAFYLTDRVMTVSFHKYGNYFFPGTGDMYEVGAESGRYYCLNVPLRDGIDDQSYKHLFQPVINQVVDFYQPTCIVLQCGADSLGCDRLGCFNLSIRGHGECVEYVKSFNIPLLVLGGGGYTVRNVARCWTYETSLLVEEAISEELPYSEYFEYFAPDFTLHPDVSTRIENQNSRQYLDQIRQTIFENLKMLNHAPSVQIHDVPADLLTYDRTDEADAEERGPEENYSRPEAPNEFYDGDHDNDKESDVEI

Nc1ccc(-c2ccc(Cl)cc2)cc1NC(=O)C1CCOCC1
T1/2 (Histone deacetylase 1): 1.52 min | T1/2 (Histone deacetylase 3): 14.2 min

From ChEMBL document CHEMBL3826926, “Kinetic and structural insights into the binding of histone deacetylase 1 and 2 (HDAC1, 2) inhibitors” (Bioorg Med Chem, 2016)
